{"sequences": {"note": "Sequences of proteins named here, by UniProt entry; tags and fusion partners are left off.", "UniProt A2RVQ5": "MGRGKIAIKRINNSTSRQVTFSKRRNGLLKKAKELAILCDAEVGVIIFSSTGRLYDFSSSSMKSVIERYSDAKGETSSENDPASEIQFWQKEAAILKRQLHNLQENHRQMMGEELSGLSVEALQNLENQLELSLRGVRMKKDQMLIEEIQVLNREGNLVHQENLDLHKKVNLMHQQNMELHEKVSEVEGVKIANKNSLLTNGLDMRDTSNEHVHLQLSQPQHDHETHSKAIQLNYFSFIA", "UniProt O64645": "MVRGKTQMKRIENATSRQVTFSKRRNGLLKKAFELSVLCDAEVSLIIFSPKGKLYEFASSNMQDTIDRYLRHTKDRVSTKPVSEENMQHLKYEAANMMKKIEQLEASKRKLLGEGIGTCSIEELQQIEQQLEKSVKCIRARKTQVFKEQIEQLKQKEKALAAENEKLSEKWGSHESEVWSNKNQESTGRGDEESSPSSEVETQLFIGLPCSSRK"}, "source": "paper doi:10.1101/2021.05.10.443448", "note": "These are yes or no findings as the source states them, for the method shown. For some of these results: In cells and extracts the contact can be indirect. Some results given as binding are weak or reduced against the parent protein; the word gives no strength. For some of these results: Tags and fused reporters may be left off the sequences shown.", "data": [{"target": "AGL16 (AGAMOUS LIKE 16), yeast two-hybrid fusion (Arabidopsis thaliana) (UniProt A2RVQ5)", "test": "two-hybrid", "values": [{"molecule": "AGL16 (AGAMOUS LIKE 16), yeast two-hybrid fusion (from UniProt A2RVQ5 1-240)", "binding": "binds"}, {"molecule": "SOC1 (SUPPRESSOR OF CONSTANS 1), yeast two-hybrid fusion (from UniProt O64645 1-214)", "binding": "binds"}, {"molecule": "SVP (SHORT … PHASE), yeast two-hybrid fusion (from UniProt Q9FVC1 1-240)", "binding": "binds"}, {"molecule": "LHP1, yeast two-hybrid fusion (protein, UniProt Q946J8 1-445) MKGASGAVKKKPQVLNEAGEAETAVETVGESRKISGDGGFGSDDGGGGGGGGSGESILREIGDDRPTEDGDEEEEEDEDEDDGGDEEDEEGEGEGGQEERPKLDEGFYEIEAIRRKRVRKGKVQYLIKWRGWPETANTWEPLENLQSIADVIDAFEGSLKPGKPGRKRKRKYAGPHSQMKKKQRLTSTSHDATEKSDSSTSLNNSSLPDIPDPLDLSGSSLLNRDVEAKNAYVSNQVEANSGSVGMARQVRLIDNEKEYDPTLNELRGPVNNSNGAGCSQGGGIGSEGDNVRPNGLLKVYPKELDKNSRFIGAKRRKSGSVKRFKQDGSTSNNHTAPTDQNLTPDLTTLDSFGRIARMGNEYPGVMENCNLSQKTKIEELDITKILKPMSFTASVSDNVQEVLVTFLALRSDGKEALVDNRFLKAHNPHLLIEFYEQHLKYNRTP", "binding": "no binding"}]}, {"target": "AGL16-nYFP (35S:AGL16-nYFP) (Arabidopsis thaliana) (UniProt A2RVQ5)", "test": "split reporter", "values": [{"molecule": "SOC1-cYFP (35S:SOC1-cYFP) (from UniProt O64645 1-214)", "binding": "binds"}, {"molecule": "SVP, BiFC construct (from UniProt Q9FVC1 1-240)", "binding": "binds"}, {"molecule": "LHP1, BiFC construct (protein, UniProt Q946J8 1-445) MKGASGAVKKKPQVLNEAGEAETAVETVGESRKISGDGGFGSDDGGGGGGGGSGESILREIGDDRPTEDGDEEEEEDEDEDDGGDEEDEEGEGEGGQEERPKLDEGFYEIEAIRRKRVRKGKVQYLIKWRGWPETANTWEPLENLQSIADVIDAFEGSLKPGKPGRKRKRKYAGPHSQMKKKQRLTSTSHDATEKSDSSTSLNNSSLPDIPDPLDLSGSSLLNRDVEAKNAYVSNQVEANSGSVGMARQVRLIDNEKEYDPTLNELRGPVNNSNGAGCSQGGGIGSEGDNVRPNGLLKVYPKELDKNSRFIGAKRRKSGSVKRFKQDGSTSNNHTAPTDQNLTPDLTTLDSFGRIARMGNEYPGVMENCNLSQKTKIEELDITKILKPMSFTASVSDNVQEVLVTFLALRSDGKEALVDNRFLKAHNPHLLIEFYEQHLKYNRTP", "binding": "no binding"}]}]}
